We go through three molecules from article PMC3587611.

First the molecules themselves.
T1: GST-Dullard recombinant protein (lacking the first 30 amino acids) (UniProt Q3TP92)
T1 sequence: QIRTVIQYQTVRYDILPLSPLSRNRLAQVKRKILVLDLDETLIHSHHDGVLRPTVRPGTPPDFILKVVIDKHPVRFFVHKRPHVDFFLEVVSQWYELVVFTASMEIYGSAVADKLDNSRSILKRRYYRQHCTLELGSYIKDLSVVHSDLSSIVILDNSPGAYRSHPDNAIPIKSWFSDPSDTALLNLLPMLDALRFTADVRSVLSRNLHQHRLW

B1: Myc-tagged Dvl1 (protein, UniProt P51141 1-695)
chain: MAETKIIYHMDEEETPYLVKLPVAPERVTLADFKNVLSNRPVHAYKFFFKSMDQDFGVVKEEIFDDNAKLPCFNGRVVSWLVLAEGAHSDAGSQGTDSHTDLPPPLERTGGIGDSRPPSFHPNVASSRDGMDNETGTESMVSHRRERARRRNRDEAARTNGHPRGDRRRDLGLPPDSASTVLSSELESSSFIDSDEEDNTSRLSSSTEQSTSSRLVRKHKCRRRKQRLRQTDRASSFSSITDSTMSLNIITVTLNMERHHFLGISIVGQSNDRGDGGIYIGSIMKGGAVAADGRIEPGDMLLQVNDVNFENMSNDDAVRVLREIVSQTGPISLTVAKCWDPTPRSYFTIPRADPVRPIDPAAWLSHTAALTGALPRYGTSPCSSAITRTSSSSLTSSVPGAPQLEEAPLTVKSDMSAIVRVMQLPDSGLEIRDRMWLKITIANAVIGADVVDWLYTHVEGFKERREARKYASSMLKHGFLRHTVNKITFSEQCYYVFGDLCSNLASLNLNSGSSGASDQDTLAPLPHPSVPWPLGQGYPYQYPGPPPCFPPAYQDPGFSCGSGSAGSQQSEGSKSSGSTRSSHRTPGREERRATGAGGSGSESDHTVPSGSGSTGWWERPVSQLSRGSSPRSQASAVAPGLPPLHPLTKAYAVVGGPPGGPPVRELAAVPPELTGSRQSFQKAMGNPCEFFVDIM
B2: Myc-tagged Dvl2 (protein, UniProt Q60838 1-736)
chain: MAGSSAGGGGVGETKVIYHLDEEETPYLVKIPVPAERITLGDFKSVLQRPAGAKYFFKSMDQDFGVVKEEISDDNARLPCFNGRVVSWLVSSDTPQPEVAPPAHESRTELVPPPPPLPPLPPERTSGIGDSRPPSFHPNVSSSHENLEPETETESVVSLRRDRPRRRDSSEHGAGGHRPGGPSRLERHLAGYESSSTLMTSELESTSLGDSDEDDTMSRFSSSTEQSSASRLLKRHRRRRKQRPPRMERTSSFSSVTDSTMSLNIITVTLNMEKYNFLGISIVGQSNERGDGGIYIGSIMKGGAVAADGRIEPGDMLLQVNDMNFENMSNDDAVRVLRDIVHKPGPIVLTVAKCWDPSPQAYFTLPRNEPIQPIDPAAWVSHSAALTGAFPAYPGSSSMSTITSGSSLPDGCEGRGLSVHMDMASVTKAMAAPESGLEVRDRMWLKITIPNAFLGSDVVDWLYHHVEGFPERREARKYASGLLKAGLIRHTVNKITFSEQCYYVFGDLSGGCESYLVNLSLNDNDGSSGASDQDTLAPLPGATPWPLLPTFSYQYPAPHPYSPQPPPYHELSSYTYGGGSASSQHSEGSRSSGSTRSDGGAGRTGRPEERAPESKSGSGSESELSSRGGSLRRGGEPGGTGDGGPPPSRGSTGAPPNLRALPGLHPYGAPSGMALPYNPMMVVMMPPPPPPVSTAVQPPGAPPVRDLGSVPPELTASRQSFHMAMGNPSEFFVDVM
B3: Myc-tagged Dvl3 (protein, UniProt Q61062 1-716)
chain: MGETKIIYHLDGQETPYLVKLPLPAERVTLADFKGVLQRPSYKFFFKSMDDDFGVVKEEISDDNAKLPCFNGRVVSWLVSAEGSHPEPAPFCADNPSELPPSMERTGGIGDSRPPSFHPHASGGSQENLDNDTETDSLVSAQRERPRRRDGPEHAARLNGTTKGERRREPGGYDSSSTLMSSELETTSFFDSDEDDSTSRFSSSTEQSSASRLMRRHKRRRRKQKVSRIERSSSFSSITDSTMSLNIITVTLNMEKYNFLGISIVGQSNERGDGGIYIGSIMKGGAVAADGRIEPGDMLLQVNEINFENMSNDDAVRVLREIVHKPGPITLTVAKCWDPSPRGCFTLPRSEPIRPIDPAAWVSHTAAMTGTFPAYGMSPSLSTITSTSSSITSSIPDTERLDDFHLSIHSDMAAIVKAMASPESGLEVRDRMWLKITIPNAFIGSDVVDWLYHNVEGFTDRREARKYASNLLKAGFIRHTVNKITFSEQCYYIFGDLCGNMANLSLHDHDGSSGASDQDTLAPLPHPGAAPWPMAFPYQYPPPPHPYNPHPGFPELGYSYGGGSASSQHSEGSRSSGSNRSGSDRRKEKDPKAGDSKSGGSGSESDHTTRSSLRGPRERAPSERSGPAASEHSHRSHHSLTSSLRSHHTHPSYGPPGVPPLYGPPMLMMTPPPAAMGPPGAPPGRDLASVPPELTASRQSFRMAMGNPSEFFVDVM

Results are given in words; binding and its absence hold for the method and conditions named. Binding seen in cells or lysates may run through a third protein. Some entries that bind do so weakly or less than the wild type. Where a sequence is shown, tags or fusion partners need not be part of it.

This experiment has as its target T1, GST-Dullard recombinant protein (lacking the first 30 amino acids). As to the kind of experiment: pull-down; GST-Dullard recombinant protein as bait; Myc-tagged Dvls from transfected HEK293 cells, detected by an anti-Myc antibody; two independent experiments.
Take B1: the binding entry is “binds”.

For B2, the binding result is “binds”.

B3: the binding result is “binds”.
